The values that follow come from US7807384B2, “Low density lipoprotein binding proteins and their use in diagnosing and treating atherosclerosis” (Boston Heart Foundation, Inc., priority 1996, dated 2010).

The nature of this series: Body weight and serum lipids of LBP-immunized apo E knockout mice. In kind it is in vivo, mouse. Conditions: small sample size, large variability. As for the experimental part: Four week old apo E knockout mice (Jackson Laboratories, Bar Harbor, Me.) were ear tagged, randomly assigned to different cages and weighed. Body weights were determined weekly. Animals were allowed to habituate for 1 week. Normal rodent chow was provided ad libitum and animals were maintained in a 12:12 light:dark cycle. The following four groups of mice were treated with either recombinant LBP proteins (40 μg of recombinant protein/mouse) plus RIBI adjuvant or RIBI adjuvant alone (control group).
Blood samples were analyzed for total cholesterol, HDL cholesterol, and triglyceride concentration with a commercially available total cholesterol and triglycerides assay kits (Sigma; St. Louis Mo.) using an ELISA format. HDL concentration was determined after Apo B containing lipoproteins were precipitated using heparin/MnCl2.
Data were analyzed using T-tests and Wilcoxons.

B1: LBP-3: rabbit recombinant LDL binding protein LBP-3 (6-His tag), SEQ ID NO: 5 (protein, listed as Oryctolagus cuniculus)
chain: MKNQDKKNGAAKQPNPKSSPGQPEAGAEGAQGRPGRPAPAREAEGASSQAPGRPEGAQAKTAQPGALCDVSEELSRQLEDILSTYCVDNNQGAPGEDGVQGEPPEPEDAEKSRAYVARNGEPEPGTPVVNGEKETSKAEPGTEEIRTSDEVGDRDHRRPQEKKKAKGLGKEITLLMQTLNTLSTPEEKLAALCKKYAELLEEHRNSQKQMKLLQKKQSQLVQEKDHLRGEHSKAILARSKLESLCRELQRHNRSLKEEGVQRAREEEEKRKEVTSHFQMTLNDIQLQMEQHNERNSKLRQENMELAERLKKLIEQYELREEHIDKVFKHKDLQQQLVDAKLQQAQEMLKEAEERHQREKDFLLKEAVESQRMCELMKQQETHLKQQLALYTEKFEEFQNTLSKSSEVFTTFKQEMEKMTKKIKKLEKETTMYRSRWESSNKALLEMAEEKTLRDKELEGLQVKIQRLEKLCRALQTERNDLNKRVQDLSAGGQGPVSDSGPERRPEPATTSKEQGVEGPGAQVPNSPRATDASCCAGAPSTEASGQTGPQEPTTATA
modifications: 6-His tag
Take B1: the “Effect of immunization on total cholesterol, HDL cholesterol or triglycerides concentration” value was “did not appear to”.

B2: LBP-2: rabbit recombinant LBP-2 clone 26 (6-His tag), contains the acidic region (protein)
chain: PPPPQQPQPPPEGGAARAGGPARPVSLREVVRYLGGSSGAGGRLTRGRVQGLLEEEAAARGRLERTRLGALALPRGDRPGRAPPAASARAARNKRAGEERVLEKEEEEEEEEDDEDDDDDVVSEGSEVPESDRPAGAQHHQLNGGERGPQTAKERAKEWSLCGPHPGQEEGRGPAAGSGTRQVFSMAALSKEGGSASSTTGPDSPSPVPLPPGKPALPGADGTPFGCPAGRKEKPADPVEWTVMDVVEYFTEAGFPEQATAFQEQEIDGKSLLLMQRTDVLTGLSIRLGPALKIYEHHIKVLQQGHFEDDDPEGFLG
modifications: left off: small tags and cut ends
notes: rabbit recombinant LBP-2 clone 26 (6-His tag), contains the acidic region
Consider B2, for which the “Effect of immunization on total cholesterol, HDL cholesterol or triglycerides concentration” value was “did not appear to”.
